Earlier results, collected in patent US20140031324A1, “COMPOUND COMPOSITION FOR INHALATION USED FOR TREATING ASTHMA” (Intech Biopharm Ltd., priority 2010, published 2014).

Conditions: long acting beta-2 agonists (LABA); cited from earlier work

In the case of `COc1ccc(CC(C)NCC(O)c2ccc(O)c(NC=O)c2)cc1` (stereo not shown) [Formoterol], the duration of action is given as “up to twelve”.
